PubChem BioAssay AID1224830 | NIAID, 2016

Aim: 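Host factors that control LPS-induced TNF expression in human macrophages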 (primary screen)
Cell system: human THP-1 monocytic leukaemia cells, TNF dual-luciferase reporter clone, PMA-differentiated to macrophage-like cells
Reagents: siRNA pool against human genes, 50 nM
Time to read-out: LPS for 4 h, given about 3 days after siRNA transfection
Conditions: bacterial LPS (TLR4 ligand), 10 ng/ml
Detection: 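Ratio of firefly to renilla light, scaled to the plate median and expressed as a robust z-score per replicate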
Scale: TNF reporter robust z-score: higher = stronger TNF reporter response to LPS
Hit rule: 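Each well counts as active if its z-score is over 2.8 or under -1.5; controls are left without a call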
The deposit covers about 18,000 reagents; this is a random part of them. In the full data, about 2,900 (16%) are marked active. 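Calls are made per well; low scores hint the gene aids the LPS response, high scores that it dampens it.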 Entries without a mark were called inactive. Repeated entries: four replicate wells of each siRNA pool.

AP1S1 (GeneID 1174)
- TNF reporter robust z-score: 1.03

AP1S1 (GeneID 1174)
- TNF reporter robust z-score: 2.48

AP1S1 (GeneID 1174)
- TNF reporter robust z-score: 0.46

AP1S1 (GeneID 1174)
- TNF reporter robust z-score: 0.5

NMUR1 (GeneID 10316)
- TNF reporter robust z-score: -0.72

NMUR1 (GeneID 10316)
- TNF reporter robust z-score: -0.76

NMUR1 (GeneID 10316)
- TNF reporter robust z-score: -0.5

NMUR1 (GeneID 10316)
- TNF reporter robust z-score: -0.22

PDE6G (GeneID 5148)
- TNF reporter robust z-score: 1.09

PDE6G (GeneID 5148)
- TNF reporter robust z-score: 1.96

PDE6G (GeneID 5148)
- TNF reporter robust z-score: 1.99

PDE6G (GeneID 5148)
- TNF reporter robust z-score: 2.56

FAF1 (GeneID 11124)
- TNF reporter robust z-score: 0.59

FAF1 (GeneID 11124)
- TNF reporter robust z-score: 1.37

FAF1 (GeneID 11124)
- TNF reporter robust z-score: 1.36

FAF1 (GeneID 11124)
- TNF reporter robust z-score: 2.15

CD38 (GeneID 952)
- TNF reporter robust z-score: 0.31

CD38 (GeneID 952)
- TNF reporter robust z-score: 0.94

CD38 (GeneID 952)
- TNF reporter robust z-score: 0.81

CD38 (GeneID 952)
- TNF reporter robust z-score: 0.79

GPR137 (GeneID 56834)
- TNF reporter robust z-score: -0.11

GPR137 (GeneID 56834)
- TNF reporter robust z-score: 0.03

GPR137 (GeneID 56834)
- TNF reporter robust z-score: -1.2

GPR137 (GeneID 56834)
- TNF reporter robust z-score: -0.52

CIP2A (GeneID 57650)
- TNF reporter robust z-score: -1.29

CIP2A (GeneID 57650)
- TNF reporter robust z-score: -1.07

CIP2A (GeneID 57650)
- TNF reporter robust z-score: -1.25

CIP2A (GeneID 57650)
- TNF reporter robust z-score: -1.5

SBF1 (GeneID 6305)
- TNF reporter robust z-score: 0.58

SBF1 (GeneID 6305)
- TNF reporter robust z-score: 0.03

SBF1 (GeneID 6305)
- TNF reporter robust z-score: 0.32

SBF1 (GeneID 6305)
- TNF reporter robust z-score: 0.05

RPS16 (GeneID 6217)
- TNF reporter robust z-score: -0.36

RPS16 (GeneID 6217)
- TNF reporter robust z-score: -0.61

RPS16 (GeneID 6217)
- TNF reporter robust z-score: -0.33

RPS16 (GeneID 6217)
- TNF reporter robust z-score: -0.55

KIF16B (GeneID 55614)
- TNF reporter robust z-score: -1.16

KIF16B (GeneID 55614)
- TNF reporter robust z-score: -1.63 (active)

KIF16B (GeneID 55614)
- TNF reporter robust z-score: -0.94

KIF16B (GeneID 55614)
- TNF reporter robust z-score: -0.46

Records listed so far whose target name begins with G or g (4):
GPR137 (GeneID 56834)
- TNF reporter robust z-score: -0.11

GPR137 (GeneID 56834)
- TNF reporter robust z-score: 0.03

GPR137 (GeneID 56834)
- TNF reporter robust z-score: -1.2

GPR137 (GeneID 56834)
- TNF reporter robust z-score: -0.52

The listing continues:
MRPL32 (GeneID 64983)
- TNF reporter robust z-score: -1.56 (active)

MRPL32 (GeneID 64983)
- TNF reporter robust z-score: -0.39

MRPL32 (GeneID 64983)
- TNF reporter robust z-score: -0.04

MRPL32 (GeneID 64983)
- TNF reporter robust z-score: 0.25

EBF1 (GeneID 1879)
- TNF reporter robust z-score: -0.37

EBF1 (GeneID 1879)
- TNF reporter robust z-score: 2.47

EBF1 (GeneID 1879)
- TNF reporter robust z-score: 1.4

EBF1 (GeneID 1879)
- TNF reporter robust z-score: 2.37

CDK16 (GeneID 5127)
- TNF reporter robust z-score: 1.62

CDK16 (GeneID 5127)
- TNF reporter robust z-score: 0.6

CDK16 (GeneID 5127)
- TNF reporter robust z-score: -0.07

CDK16 (GeneID 5127)
- TNF reporter robust z-score: 0.17

SAMD1 (GeneID 90378)
- TNF reporter robust z-score: 4.68 (active)

SAMD1 (GeneID 90378)
- TNF reporter robust z-score: 6.68 (active)

SAMD1 (GeneID 90378)
- TNF reporter robust z-score: 4.2 (active)

SAMD1 (GeneID 90378)
- TNF reporter robust z-score: 4.14 (active)

ADAT1 (GeneID 23536)
- TNF reporter robust z-score: 0.65

ADAT1 (GeneID 23536)
- TNF reporter robust z-score: 0.71

ADAT1 (GeneID 23536)
- TNF reporter robust z-score: 0.76

ADAT1 (GeneID 23536)
- TNF reporter robust z-score: 2.16
